In patent US20090202520A1:
Results are given in words; binding and its absence hold for the method and conditions named. Some results given as binding are weak or reduced against the parent protein; the word gives no strength.

The chains behind the UniProt entries cited, without tags or fusion partners. Where a name states a change or a piece, a line headed by the entry shows the natural chain unless it says otherwise. Residues count along the entry.
UniProt P12314, residues 16-292: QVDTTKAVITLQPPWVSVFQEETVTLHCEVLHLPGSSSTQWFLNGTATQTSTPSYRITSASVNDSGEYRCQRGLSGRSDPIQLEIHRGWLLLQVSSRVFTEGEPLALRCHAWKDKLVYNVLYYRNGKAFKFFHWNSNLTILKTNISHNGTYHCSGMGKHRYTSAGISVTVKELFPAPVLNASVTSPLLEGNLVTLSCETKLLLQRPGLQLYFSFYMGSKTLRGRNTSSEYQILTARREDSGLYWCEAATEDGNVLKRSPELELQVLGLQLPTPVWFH
UniProt P12318: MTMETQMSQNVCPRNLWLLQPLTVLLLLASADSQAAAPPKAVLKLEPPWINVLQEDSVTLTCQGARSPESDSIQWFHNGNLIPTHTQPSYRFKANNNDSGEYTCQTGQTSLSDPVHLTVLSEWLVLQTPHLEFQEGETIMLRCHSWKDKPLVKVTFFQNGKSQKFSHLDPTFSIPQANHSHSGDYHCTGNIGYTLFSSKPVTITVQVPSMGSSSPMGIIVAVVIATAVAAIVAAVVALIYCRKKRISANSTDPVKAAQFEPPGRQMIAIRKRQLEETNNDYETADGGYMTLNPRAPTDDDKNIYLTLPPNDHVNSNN

Experiments:
[1] = target: serum amyloid P (SAP) (human), P02743; assay: SPR, rank order of affinities; settings: remark: other sources report otherwise
[2] = target: serum amyloid P (SAP) (human), P02743; assay: SPR (Biacore X100), single cycle kinetics; SAP bound and briefly amine-coupled on CM5 chip, sFcγRIIIB flowed at five rising concentrations; human serum albumin reference cell subtracted; settings: remark: other sources report otherwise
[3] = target: soluble recombinant FcγRI (sFcγRI) (UniProt P12314); assay: SPR sensorgram
[4] = target: soluble recombinant FcγRIIIB (sFcγRIIIB) (UniProt O75015); assay: SPR sensorgram
[5] = target: soluble recombinant FcγRI (sFcγRI) (UniProt P12314); assay: SPR, comparison of SAP and CRP affinities
[6] = target: soluble recombinant FcγRIIA (H131 variant) (human) (UniProt P12318); assay: SPR, comparison of SAP and CRP affinities
[7] = target: soluble recombinant FcγRIIIB (sFcγRIIIB) (UniProt O75015); assay: SPR, comparison of SAP and CRP affinities
[8] = target: soluble recombinant FcγRI (sFcγRI) (UniProt P12314); assay: SPR (Biacore X100), CRP captured on PC-KLH on CM5 chip
[9] = target: soluble recombinant FcγRIIA (H131 variant) (human) (UniProt P12318); assay: as above
[10] = target: soluble recombinant FcγRIIIB (sFcγRIIIB) (UniProt O75015); assay: as above
[11] = target: soluble recombinant FcγRI (sFcγRI) (UniProt P12314); assay: SPR, response at equilibrium against receptor concentration
[12] = target: soluble recombinant FcγRIIIB (sFcγRIIIB) (UniProt O75015); assay: as above

Measured: binding

B1: soluble recombinant FcγRIIIB (sFcγRIIIB), O75015 17-200 (receptor, UniProt O75015 17-200, looked up, not shown: small tags and cut ends)
chain: GMRTEDLPKAVVFLEPQWYSVLEKDSVTLKCQGAYSPEDNSTQWFHNENLISSQASSYFIDAATVNDSGEYRCQTNLSTLSDPVQLEVHIGWLLLQAPRWVFKEEDPIHLRCHSWKNTALHKVTYLQNGKDRKYFHHNSDFHIPKATLKDSGSYFCRGLVGSKNVSSETVNITITQGLAVSTIS
binds: [1] | [2]

B2: C-reactive protein (CRP) (ligand, human, UniProt P02741 19-224, looked up)
chain: QTDMSRKAFVFPKESDTSYVSLKAPLTKPLKAFTVCLHFYTELSSTRGYSIFSYATKRQDNEILIFWSKDIGYSFTVGGSEILFEVPEVTVAPVHICTSWESASGIVEFWVDGKPRVRKSLKKGYTVGAEASIILGQEQDSFGGNFEGSQSLVGDIGNVNMWDFVLSPDEINTIYLGGPFSPNVLNWRALKYEVQGEVFTKPQLWP
not listed: [1] | [2]
binds: all other assays above
